Results deposited as PubChem BioAssay AID1224830 (NIAID, 2016)
Assay: 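Host factors that control LPS-induced TNF expression in human macrophages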 (primary screen). Cells: human THP-1 monocytic leukaemia cells, TNF dual-luciferase reporter clone, PMA-differentiated to macrophage-like cells. Reagent: siRNA pool against human genes, 50 nM. Timing: LPS for 4 h, given about 3 days after siRNA transfection. Treatment: bacterial LPS (TLR4 ligand), 10 ng/ml. Measurement: 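Ratio of firefly to renilla light, scaled to the plate median and expressed as a robust z-score per replicate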. Direction: TNF reporter robust z-score: higher = stronger TNF reporter response to LPS. Active means: 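a well is active when its z-score exceeds 2.8 or falls below -1.5; control wells carry no call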.
This is an unselected part of about 18,000 reagents. About 2,900 of them (16%) were called active. 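Calls are made per well; low scores hint the gene aids the LPS response, high scores that it dampens it.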 Repeated entries: four replicate wells of each siRNA pool. No sequences are given here.

ODAD2 (outer dynein arm docking complex subunit 2) showed TNF reporter robust z-score 4.46; active.
Depletion of ODAD2 (outer dynein arm docking complex subunit 2) gave: TNF reporter robust z-score 3.82; active.
Against ODAD2 (outer dynein arm docking complex subunit 2), the entry reads TNF reporter robust z-score -0.12; inactive.
After knock-down of ODAD2 (outer dynein arm docking complex subunit 2), the screen gave TNF reporter robust z-score -0.88; inactive.
For COXFA4L3 (cytochrome c oxidase associated subunit FA4L3) the deposit lists TNF reporter robust z-score 0.72; inactive.
Against COXFA4L3 (cytochrome c oxidase associated subunit FA4L3) the deposit lists TNF reporter robust z-score 0.64; inactive.
COXFA4L3 (cytochrome c oxidase associated subunit FA4L3) gave TNF reporter robust z-score 0.06; inactive.
Against COXFA4L3 (cytochrome c oxidase associated subunit FA4L3) the deposit lists TNF reporter robust z-score 0.96; inactive.
With knock-down of THAP6 (THAP domain containing 6) the results were TNF reporter robust z-score 2.74; inactive.
Knock-down of THAP6 (THAP domain containing 6) gave: TNF reporter robust z-score 2.91; active.
Silencing of THAP6 (THAP domain containing 6) came out at: TNF reporter robust z-score -0.2; inactive.
Depletion of THAP6 (THAP domain containing 6) resulted in: TNF reporter robust z-score 1.55; inactive.
Against FZD7 (frizzled class receptor 7), the entry reads TNF reporter robust z-score -1.18; inactive.
FZD7 (frizzled class receptor 7) gave TNF reporter robust z-score 0.08; inactive.
For FZD7 (frizzled class receptor 7), the values are TNF reporter robust z-score -0.26; inactive.
Against FZD7 (frizzled class receptor 7) the deposit lists TNF reporter robust z-score 1.06; inactive.
For CATSPERG (catsper channel auxiliary subunit gamma), the values are TNF reporter robust z-score -1.01; inactive.
Knock-down of CATSPERG (catsper channel auxiliary subunit gamma) resulted in: TNF reporter robust z-score -0.92; inactive.
Depletion of CATSPERG (catsper channel auxiliary subunit gamma) came out at: TNF reporter robust z-score -0.75; inactive.
Against CATSPERG (catsper channel auxiliary subunit gamma) the deposit lists TNF reporter robust z-score -0.94; inactive.
MMEL1 (membrane metalloendopeptidase like 1) scored TNF reporter robust z-score 1.22; inactive.
Silencing of MMEL1 (membrane metalloendopeptidase like 1) resulted in: TNF reporter robust z-score 0.66; inactive.
MMEL1 (membrane metalloendopeptidase like 1) gave TNF reporter robust z-score 0.58; inactive.
With knock-down of MMEL1 (membrane metalloendopeptidase like 1), the record shows TNF reporter robust z-score -0.79; inactive.
For TNK2 (tyrosine kinase non receptor 2), the values are TNF reporter robust z-score -1.01; inactive.
For TNK2 (tyrosine kinase non receptor 2) the deposit lists TNF reporter robust z-score 2.89; active.
Knock-down of TNK2 (tyrosine kinase non receptor 2) gave: TNF reporter robust z-score 0.81; inactive.
With knock-down of TNK2 (tyrosine kinase non receptor 2), the record shows TNF reporter robust z-score 1.38; inactive.
Silencing of WDR13 (WD repeat domain 13) came out at: TNF reporter robust z-score -0.49; inactive.
WDR13 (WD repeat domain 13) showed TNF reporter robust z-score -0.19; inactive.
With knock-down of WDR13 (WD repeat domain 13) the results were TNF reporter robust z-score -0.63; inactive.
WDR13 (WD repeat domain 13) scored TNF reporter robust z-score -0.34; inactive.
After knock-down of UBE2K (ubiquitin conjugating enzyme E2 K) the results were TNF reporter robust z-score -0.64; inactive.
UBE2K (ubiquitin conjugating enzyme E2 K) scored TNF reporter robust z-score -0.47; inactive.
For UBE2K (ubiquitin conjugating enzyme E2 K), the entry reads TNF reporter robust z-score 0.76; inactive.
Silencing of UBE2K (ubiquitin conjugating enzyme E2 K) gave: TNF reporter robust z-score -0.31; inactive.
Knock-down of TARBP1 (tRNA guanosine 2 -O-methyltransferase TARBP1) came out at: TNF reporter robust z-score -0.48; inactive.
After knock-down of TARBP1 (tRNA guanosine 2 -O-methyltransferase TARBP1) the results were TNF reporter robust z-score -0.01; inactive.
Depletion of TARBP1 (tRNA guanosine 2 -O-methyltransferase TARBP1) gave: TNF reporter robust z-score -0.18; inactive.
Knock-down of TARBP1 (tRNA guanosine 2 -O-methyltransferase TARBP1) came out at: TNF reporter robust z-score 0.7; inactive.
After knock-down of SECTM1 (secreted and transmembrane 1), the record shows TNF reporter robust z-score -0.57; inactive.
With knock-down of SECTM1 (secreted and transmembrane 1), the record shows TNF reporter robust z-score -0.64; inactive.
SECTM1 (secreted and transmembrane 1) gave TNF reporter robust z-score -0.66; inactive.
SECTM1 (secreted and transmembrane 1) scored TNF reporter robust z-score -0.65; inactive.
After knock-down of TUBA1A (tubulin alpha 1a) the results were TNF reporter robust z-score -1.54; active.
TUBA1A (tubulin alpha 1a) showed TNF reporter robust z-score -1.06; inactive.
Against TUBA1A (tubulin alpha 1a), the entry reads TNF reporter robust z-score -1.19; inactive.
With knock-down of TUBA1A (tubulin alpha 1a) the results were TNF reporter robust z-score 0.4; inactive.
Against C16orf86 (chromosome 16 open reading frame 86), the values are TNF reporter robust z-score 0.51; inactive.
After knock-down of C16orf86 (chromosome 16 open reading frame 86), the record shows TNF reporter robust z-score 1.27; inactive.
For C16orf86 (chromosome 16 open reading frame 86) the deposit lists TNF reporter robust z-score -0.43; inactive.
Silencing of C16orf86 (chromosome 16 open reading frame 86) resulted in: TNF reporter robust z-score -0.55; inactive.
NOL11 (nucleolar protein 11) gave TNF reporter robust z-score 0.44; inactive.
With knock-down of NOL11 (nucleolar protein 11), the screen gave TNF reporter robust z-score 0.27; inactive.
Knock-down of NOL11 (nucleolar protein 11) resulted in: TNF reporter robust z-score 0.37; inactive.
With knock-down of NOL11 (nucleolar protein 11) the results were TNF reporter robust z-score 0.97; inactive.
PARVG (parvin gamma) showed TNF reporter robust z-score -0.18; inactive.
With knock-down of PARVG (parvin gamma), the screen gave TNF reporter robust z-score 0.36; inactive.
For PARVG (parvin gamma) the deposit lists TNF reporter robust z-score 0.8; inactive.
With knock-down of PARVG (parvin gamma), the screen gave TNF reporter robust z-score 0.52; inactive.

Entries listed so far called active:
ODAD2 (outer dynein arm docking complex subunit 2) — TNF reporter robust z-score = 4.46; activity call = active
ODAD2 (outer dynein arm docking complex subunit 2) — TNF reporter robust z-score = 3.82; activity call = active
THAP6 (THAP domain containing 6) — TNF reporter robust z-score = 2.91; activity call = active
TNK2 (tyrosine kinase non receptor 2) — TNF reporter robust z-score = 2.89; activity call = active
TUBA1A (tubulin alpha 1a) — TNF reporter robust z-score = -1.54; activity call = active
